Measurements: the supplement of paper PMC9254222
Where a name gives a salt, the structure may show the parent alone. Over roughly 1,100 compounds, “Wnt reporter firefly/Renilla luciferase ratio relative to plate median” has its median near 1.1; the highest 2% begin near 1.6. The list shows a part of the results, in another mix than the full data.

Test system: HEK293T (UBE3A T485A transfected, BAR Wnt reporter)
Assay: Wnt reporter firefly/Renilla luciferase ratio relative to plate median (fold (linear ratio)); higher = more Wnt/beta-catenin reporter activation
Conditions: 24 h
Method in brief: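 Chemicals at 0.01–100 uM were left on transfected HEK293T cells for 24 h, after a four-hour wait following transfection. The cells held a BAR firefly luciferase Wnt reporter, TK-Renilla and an expression plasmid. Wnt activity, as the firefly/Renilla ratio from a Dual-Glo luciferase readout, and cell health, as raw Renilla, were median-centred within each plate. Results average four biological replicates.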

Structure (SMILES) | Wnt reporter firefly/Renilla luciferase ratio (concentration: 0.1 uM) | Wnt reporter firefly/Renilla luciferase ratio (concentration: 1 uM) | Wnt reporter firefly/Renilla luciferase ratio (concentration: 10 uM) | Wnt reporter firefly/Renilla luciferase ratio (concentration: 100 uM) | Wnt reporter firefly/Renilla luciferase ratio (concentration: 0.01 uM)
CCNc1nc(Cl)nc(NC(C)(C)C)n1 [Terbutylazine] | 1.21 | 1.24 | 1.22 | 1.04 | 
CC(C)N(C(=O)SCC(Cl)=C(Cl)Cl)C(C)C [Tri-allate] | 0.999 | 0.912 | 1.16 | 1.43 | 0.896
C=C(C)CN(CC)c1c([N+](=O)[O-])cc(C(F)(F)F)cc1[N+](=O)[O-] [Ethalfluralin] | 1.2 | 1.02 | 1.13 | 1.37 | 0.93
O=[N+]([O-])/N=C1\NCCN1Cc1ccc(Cl)nc1 [Imidacloprid] | 0.767 | 0.918 | 0.826 | 1.06 | 0.739
CCCCNC(=O)OCC#CI [3-Iodo-2-propynyl-N-butylcarbamate] | 0.915 | 1.09 | 1.02 |  | 1.14
C1=CCCC=CCCC=CCC1 [1,5,9-Cyclododecatriene] | 1.17 | 1.13 | 1.25 | 1.6 | 
CC1=NNC(=O)N(/N=C/c2cccnc2)C1 [Pymetrozine] | 0.846 | 0.887 | 0.985 | 1.15 | 1.05
CC(C)(O)C(=O)Nc1ccc([N+](=O)[O-])c(C(F)(F)F)c1 [Hydroxyflutamide] | 0.867 | 1.12 | 1.03 | 0.388 | 
CC1COC(Cn2cncn2)(c2ccc(Oc3ccc(Cl)cc3)cc2Cl)O1 (stereo unspecified) [Difenoconazole] | 1.22 | 0.952 | 0.468 | 0.35 | 1.13
CCNP(=S)(OC)O/C(C)=C/C(=O)OC(C)C (stereo unspecified) [Propetamphos] | 1.12 | 0.9 | 0.856 | 0.571 | 1.23
CCOc1cc(C(C)(C)C)ccc1C1COC(c2c(F)cccc2F)=N1 (stereo unspecified) [Etoxazole] | 1.25 | 1 | 1 | 0.646 | 1.45
[Na+].[O-][Cl+][O-] [Sodium chlorite] | 1.21 | 1.01 | 0.808 | 1.25 | 
CCOP(=O)(OCC)Oc1cc(C)nc(C(C)C)n1 [Diazoxon] | 1.15 | 1.11 | 0.964 | 1.26 | 1.08
CCc1nn(C)c(C(=O)NCc2ccc(C(C)(C)C)cc2)c1Cl [Tebufenpyrad] | 0.632 | 0.279 | 0.218 | 0.51 | 0.583
Cc1cccc(C)c1N [2,6-Dimethylaniline] | 1.15 | 1.04 | 1.26 | 1.15 | 
O=C(NC(=O)c1c(F)cccc1F)Nc1cc(Cl)c(OC(F)(F)C(F)F)c(Cl)c1 [Hexaflumuron] | 1.11 | 1.01 | 0.995 | 0.99 | 
CCCSP(=O)(OCC)SCCC [Ethoprop] | 1.32 | 1.13 | 1.15 | 0.804 | 1.21
COC(=O)NS(=O)(=O)c1ccc(N)cc1 [Asulam] | 1.19 | 1.06 | 0.993 | 1.33 | 1.32
CNC(=S)[S-].O.O.O.[Na+] [Metam-sodium hydrate] | 0.921 | 0.977 | 1.06 | 1.1 | 0.905
CCCCOC(=O)c1ccccc1C(=O)O [Monobutyl phthalate] |  | 2.24 |  | 1.75 | 
COc1ccc(-c2ccccc2)cc1NNC(=O)OC(C)C [Bifenazate] | 1.07 | 1.08 | 0.882 | 0.576 | 1.03
COP(=S)(OC)SCN1C(=O)c2ccccc2C1=O [Phosmet] | 1.07 | 0.925 | 1.47 | 1.65 | 

Structure (SMILES) | Wnt reporter firefly/Renilla luciferase ratio (concentration: 0.1 uM) | Wnt reporter firefly/Renilla luciferase ratio (concentration: 1 uM) | Wnt reporter firefly/Renilla luciferase ratio (concentration: 10 uM) | Wnt reporter firefly/Renilla luciferase ratio (concentration: 100 uM) | Wnt reporter firefly/Renilla luciferase ratio (concentration: 0.01 uM)
Oc1cccc2cccnc12 [8-Hydroxyquinoline] | 1.01 | 1.15 | 0.909 |  | 
Clc1nc(Cl)c(Cl)c(Cl)c1Cl [Pentachloropyridine] | 0.898 | 0.89 | 0.876 | 1.23 | 
Cc1cc(Cc2ccc(N)c(C)c2)ccc1N [4,4'-Methylenebis(2-methylaniline)] | 0.933 | 0.955 | 0.928 | 0.331 | 
O=C(Nc1ccccc1)Nc1cnns1 [Thidiazuron] | 0.856 | 0.907 | 0.822 | 0.155 | 0.815
COS(C)(=O)=O [Methyl methanesulfonate] | 0.999 | 0.797 | 1.14 | 1.24 | 
O=C(O)c1cc(Oc2ccc(C(F)(F)F)cc2Cl)ccc1[N+](=O)[O-] [Acifluorfen] | 1.12 | 1.2 | 1.16 | 1.25 | 1.13
O=C(O)COc1nc(Cl)c(Cl)cc1Cl [Triclopyr] | 1.25 | 1.28 | 1.22 | 1.2 | 1.5
COc1ccc(C(=CC(=O)N2CCOCC2)c2ccc(Cl)cc2)cc1OC [Dimethomorph] | 0.875 | 1.02 | 0.911 | 0.379 | 0.683
CCOCN(C(=O)CCl)c1c(C)cccc1CC [Acetochlor] | 1.1 | 0.966 | 0.935 | 0.781 | 0.848
CCOS(=O)(=O)OCC [Diethyl sulfate] | 0.936 | 1 | 1.14 | 1.53 | 
CCc1cnc(C2=NC(C)(C(C)C)C(=O)N2)c(C(=O)O)c1 (stereo unspecified) [Imazethapyr] | 1.05 | 1.17 | 1.21 | 1.24 | 1.15
CCCOc1nn(C(=O)[N-]S(=O)(=O)c2ccccc2C(=O)OC)c(=O)n1C.[Na+] [Propoxycarbazone-sodium] | 0.992 | 1.07 | 1.13 | 1.45 | 0.752
O=S(=O)(O)C(F)(F)C(F)(F)C(F)(F)C(F)(F)C(F)(F)C(F)(F)C(F)(F)C(F)(F)F | 1.09 | 1.07 | 1.06 | 1.23 | 1.2
Cc1ccccc1[N+](=O)[O-] [2-Nitrotoluene] | 0.749 | 0.924 | 0.773 | 1.02 | 
Nn1cnnc1 [4-Amino-1,2,4-triazole] | 1.22 | 0.928 | 1.27 | 1.43 | 
CC1(C)CON(Cc2ccccc2Cl)C1=O [Clomazone] | 0.906 | 0.976 | 1 | 0.762 | 0.899
C1CC2OC2CC1C1CO1 (stereo unspecified) [4-Vinyl-1-cyclohexene dioxide] | 0.954 | 0.902 | 0.885 | 0.66 | 
Cc1cccc(N)c1N [2,3-Diaminotoluene] | 1.12 | 1.4 | 1.43 | 0.698 | 
Cc1ccc(N)c(N)c1 [3,4-Diaminotoluene] | 1.18 | 1.26 | 1.2 |  | 
c1ccc2c(c1)-c1cccc3cccc-2c13 [Fluoranthene] | 1.24 | 0.9 | 1.06 | 1.09 | 
COCC(C)N(C(=O)CCl)c1c(C)csc1C (stereo unspecified) [Dimethenamid] | 1.58 | 1.07 | 1.21 | 0.568 | 1.49
Cc1ccc(-c2c(Cl)nc(C#N)n2S(=O)(=O)N(C)C)cc1 [Cyazofamid] | 1.4 | 1.07 | 0.975 |  | 1.17

Another view of 2 compounds above:
Structure (SMILES)	Wnt reporter firefly/Renilla luciferase ratio (concentration: 0.1 uM)	Wnt reporter firefly/Renilla luciferase ratio (concentration: 1 uM)	Wnt reporter firefly/Renilla luciferase ratio (concentration: 10 uM)	Wnt reporter firefly/Renilla luciferase ratio (concentration: 100 uM)	Wnt reporter firefly/Renilla luciferase ratio (concentration: 0.01 uM)
Clc1nc(Cl)c(Cl)c(Cl)c1Cl [Pentachloropyridine]	0.898	0.89	0.876	1.23	
CCOCN(C(=O)CCl)c1c(C)cccc1CC [Acetochlor]	1.1	0.966	0.935	0.781	0.848

Following part:

Structure (SMILES) | Wnt reporter firefly/Renilla luciferase ratio (concentration: 0.1 uM) | Wnt reporter firefly/Renilla luciferase ratio (concentration: 1 uM) | Wnt reporter firefly/Renilla luciferase ratio (concentration: 10 uM) | Wnt reporter firefly/Renilla luciferase ratio (concentration: 100 uM) | Wnt reporter firefly/Renilla luciferase ratio (concentration: 0.01 uM)
CCNS(=O)(=O)C(F)(F)C(F)(F)C(F)(F)C(F)(F)C(F)(F)C(F)(F)C(F)(F)C(F)(F)F [Sulfluramid] | 1.02 | 1.56 | 1.38 | 1.39 | 
CNC(=O)ON=C(C)SC [Methomyl] | 1.08 | 1.03 | 0.996 | 1.19 | 0.847
CCC(C)C1OC2(C=CC1C)CC1CC(CC=C(C)C(OC3CC(OC)C(OC4CC(OC)C([NH2+]C)C(C)O4)C(C)O3)C(C)C=CC=C3COC4C(O)C(C)=CC(C(=O)O1)C34O)O2.O=C([O-])c1ccccc1 (stereo unspecified) [Emamectin benzoate] | 1.09 | 1.01 | 0.918 |  | 1.29
CC(C)OC(=O)Nc1cccc(Cl)c1 [Chlorpropham] | 1.78 | 1.23 | 1.47 | 0.823 | 1.45
Cc1ccc([N+](=O)[O-])cc1C [1,2-Dimethyl-4-nitrobenzene] | 0.844 | 1.17 | 1.19 | 1.42 | 
Cc1ccn2nc(S(=O)(=O)Nc3c(F)cccc3F)nc2n1 [Flumetsulam] | 0.967 | 0.904 | 1.03 | 1.27 | 0.851
CC(C)CCCCCCCOC(=O)c1ccccc1C(=O)OCCCCCCCC(C)C |  |  |  | 1.9 | 
C[C@@H]1C[C@@H]([C@H](O)CC2CC(=O)NC(=O)C2)C(=O)[C@@H](C)C1 [Cycloheximide] | 1.01 |  |  |  | 
CCN(CC)c1ccccc1 [N,N-Diethylaniline] | 1.46 | 1.41 | 1.32 | 0.952 | 
CC(Cc1ccc(OCC(=O)O)cc1)NCC(O)c1csc(C(F)(F)F)n1 (stereo unspecified) | 0.978 | 1.07 | 1.02 | 1.31 | 
CC(C)(C)OOC(C)(C)C [Di-tert-butyl peroxide] | 1.06 | 1.14 | 0.944 | 1.39 | 
CCOP(=S)(OCC)SCSP(=S)(OCC)OCC [Ethion] | 1.15 | 1.01 | 1.26 | 1.16 | 
O=C(Nc1ccccc1-c1ccc(Cl)cc1)c1cccnc1Cl [Boscalid] | 1.25 | 1.1 | 0.956 | 0.876 | 1.57
Cn1sc(Cl)cc1=O [5-Chloro-2-methyl-3(2H)-isothiazolone] | 1.28 | 1.07 | 1.07 | 0.458 | 
Oc1ccc2ccc3cccc4ccc1c2c34 [1-Hydroxypyrene] | 0.857 | 0.96 | 1.01 | 1.14 | 
C[n+]1ccc(-c2cc[n+](C)cc2)cc1 [Paraquat] |  |  |  | 1.77 | 
COc1ccc(O)c(C(C)(C)C)c1 [2-tert-Butyl-4-methoxyphenol] | 0.991 | 1.03 | 0.988 | 1.21 | 
O=C(CCl)c1ccccc1 [2-Chloroacetophenone] | 1.18 | 0.919 | 1.41 | 0.739 | 
Nc1ccc([N+](=O)[O-])cc1 [4-Nitroaniline] | 1.19 | 0.817 | 0.602 | 0.574 | 
COc1nn(CSP(=S)(OC)OC)c(=O)s1 [Methidathion] | 1.74 | 1.33 | 1.56 | 0.818 | 1.41
